The target of assay [1] is T1, cYFP-SPCH (Arabidopsis thaliana) (UniProt Q700C7).
T1 sequence: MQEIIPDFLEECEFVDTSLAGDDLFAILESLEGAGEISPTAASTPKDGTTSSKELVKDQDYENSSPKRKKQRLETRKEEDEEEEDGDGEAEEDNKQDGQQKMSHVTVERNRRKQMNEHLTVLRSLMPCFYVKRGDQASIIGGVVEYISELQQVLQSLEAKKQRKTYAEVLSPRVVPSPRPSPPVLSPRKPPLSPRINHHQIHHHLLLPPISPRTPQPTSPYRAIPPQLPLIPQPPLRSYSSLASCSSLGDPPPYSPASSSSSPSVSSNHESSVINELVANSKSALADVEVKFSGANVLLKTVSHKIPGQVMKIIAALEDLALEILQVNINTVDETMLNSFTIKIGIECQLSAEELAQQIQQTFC
In words: split reporter; BiFC: nYFP-SnRK2s and cYFP-SPCH coexpressed transiently (35S promoter) in N. benthamiana leaves; YFP signal seen 48 to 72 hours after infiltration by wide-field fluorescence microscopy.

Assay [2] concerns the target T2, SnRK2.3-YFP (SnRK2.3pro:SnRK2.3-YFP) (Arabidopsis thaliana) (UniProt Q39193).
T2 sequence: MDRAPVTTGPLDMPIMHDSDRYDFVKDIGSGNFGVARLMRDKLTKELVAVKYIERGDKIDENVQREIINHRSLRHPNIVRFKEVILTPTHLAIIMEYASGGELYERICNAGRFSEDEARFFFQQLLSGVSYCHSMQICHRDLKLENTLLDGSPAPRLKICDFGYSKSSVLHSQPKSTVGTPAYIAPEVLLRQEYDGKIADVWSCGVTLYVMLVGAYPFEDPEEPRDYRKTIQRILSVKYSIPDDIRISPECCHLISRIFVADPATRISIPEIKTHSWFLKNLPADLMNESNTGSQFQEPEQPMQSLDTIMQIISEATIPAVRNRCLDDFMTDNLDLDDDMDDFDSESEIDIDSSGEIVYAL
In words: co-IP; total soluble proteins of 3-day-old transgenic Arabidopsis seedlings with SnRK2.2-YFP or SnRK2.3-YFP and SPCH2-4A-Myc; immunoprecipitation with anti-GFP beads (GFP-Trap); blots with anti-Myc and anti-GFP; buffer 50 mM tris-HCl pH 7.5, 150 mM NaCl, 1 mM EDTA, 5% glycerol, 0.5% Triton X-100, 25 uM MG132.

In assay [3] the target is T3, SnRK2.2-YFP (SnRK2.2pro:SnRK2.2-YFP) (Arabidopsis thaliana) (UniProt Q39192).
T3 sequence: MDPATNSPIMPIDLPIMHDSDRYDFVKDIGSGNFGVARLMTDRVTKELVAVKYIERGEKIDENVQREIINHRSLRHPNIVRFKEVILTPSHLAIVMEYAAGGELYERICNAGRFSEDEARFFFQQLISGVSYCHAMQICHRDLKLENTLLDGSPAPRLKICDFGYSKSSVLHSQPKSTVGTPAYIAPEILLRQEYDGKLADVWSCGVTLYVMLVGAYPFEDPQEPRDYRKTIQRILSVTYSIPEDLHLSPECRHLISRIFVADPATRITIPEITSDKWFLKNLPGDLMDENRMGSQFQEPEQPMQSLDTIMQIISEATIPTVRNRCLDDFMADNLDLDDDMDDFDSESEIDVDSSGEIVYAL
The assay is described as above.

Changes are numbered by the printed parent chain. These are yes or no findings as the source states them, for the method shown. Binding seen in cells or lysates may run through a third protein. Some entries that bind do so weakly or less than the wild type. Tags and fused reporters may be left off the sequences shown.

B1: MBP-SnRK2.2 (maltose-binding protein-tagged SnRK2.2) (enzyme, Arabidopsis thaliana, UniProt Q39192 1-362, looked up)
chain: T3 sequence
notes: SnRK2.2/SRK2D, subclass III SNF1-related protein kinase 2, Arabidopsis thaliana; cDNA cloned into pETG-40A; also called SRK2D; source: E. coli ArcticExpress (DE3), purified (MBP amylose resin)
For the molecule B1, the binding result in assay [1] is “binds”.

B2: MBP-SnRK2.3 (maltose-binding protein-tagged SnRK2.3) (enzyme, Arabidopsis thaliana, UniProt Q39193 1-361, looked up)
chain: T2 sequence
notes: SnRK2.3/SRK2I, subclass III SNF1-related protein kinase 2, Arabidopsis thaliana; cDNA cloned into pETG-40A; also called SRK2I; source: E. coli ArcticExpress (DE3), purified (MBP amylose resin)
B2: the binding result in assay [1] was “binds”.

B3: SPCH2-4A-Myc (SPCHpro:SPCH2-4A-Myc) (protein, UniProt Q700C7 1-364)
chain: T1 sequence with S211A, T214A, S219A
B3: the binding entry in assay [2] and in assay [3] was “binds” each time.

These data come from article PMC9544323, “Abscisic acid regulates stomatal production by imprinting a SnRK2 kinase–mediated phosphocode on the master regulator [sequence]” (Science Advances, 2022).
